One substance from publication PMC12615396 can be followed below.

Protein sequences, listed by entry. Tags and fused reporters are not part of them.
UniProt Q13526: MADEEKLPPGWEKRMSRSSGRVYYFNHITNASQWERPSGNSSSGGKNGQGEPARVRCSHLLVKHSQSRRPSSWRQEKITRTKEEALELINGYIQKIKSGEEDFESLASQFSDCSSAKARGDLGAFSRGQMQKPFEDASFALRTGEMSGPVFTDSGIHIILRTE
UniProt Q04206: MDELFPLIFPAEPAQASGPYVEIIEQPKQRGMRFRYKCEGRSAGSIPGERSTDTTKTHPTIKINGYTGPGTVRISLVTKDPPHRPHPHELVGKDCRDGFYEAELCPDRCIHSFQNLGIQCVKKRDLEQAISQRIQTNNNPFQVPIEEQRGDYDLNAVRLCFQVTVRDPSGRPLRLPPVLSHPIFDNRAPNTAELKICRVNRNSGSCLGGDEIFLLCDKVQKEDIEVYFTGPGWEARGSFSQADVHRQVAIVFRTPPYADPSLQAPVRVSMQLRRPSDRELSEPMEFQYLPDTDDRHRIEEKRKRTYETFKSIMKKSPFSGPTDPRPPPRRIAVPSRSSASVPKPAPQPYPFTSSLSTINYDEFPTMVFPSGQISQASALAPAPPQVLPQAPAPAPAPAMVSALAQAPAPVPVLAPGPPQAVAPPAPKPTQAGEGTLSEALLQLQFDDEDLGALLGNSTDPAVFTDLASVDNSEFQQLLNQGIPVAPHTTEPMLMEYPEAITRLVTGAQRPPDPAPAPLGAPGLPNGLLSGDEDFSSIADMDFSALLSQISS

Results are given in words; binding and its absence hold for the method and conditions named. In cells and extracts the contact can be indirect. Some binding calls cover weakened binding; strength is not graded here.

The target of the assay is Pin1 (human (endogenous in SW480 and HT29)) (UniProt Q13526). In words: co-IP; endogenous co-IP from SW480 and HT29 lysates (IP lysis buffer with phosphatase and protease inhibitors); 2 µg anti-Pin1 antibody 12 h at 4 °C, Protein A/G agarose beads 2 h at 4 °C, five washes, western blotting.

With p65 (from UniProt Q04206 1-551), the binding entry is reported as “binds”.
